Data on 1 substance can be found in publication PMC12564220.

Sequences of proteins named here, by UniProt entry; tags and fusion partners are left off. A change or cut given only in a name is not applied to a line headed by its entry.
UniProt Q86TM6: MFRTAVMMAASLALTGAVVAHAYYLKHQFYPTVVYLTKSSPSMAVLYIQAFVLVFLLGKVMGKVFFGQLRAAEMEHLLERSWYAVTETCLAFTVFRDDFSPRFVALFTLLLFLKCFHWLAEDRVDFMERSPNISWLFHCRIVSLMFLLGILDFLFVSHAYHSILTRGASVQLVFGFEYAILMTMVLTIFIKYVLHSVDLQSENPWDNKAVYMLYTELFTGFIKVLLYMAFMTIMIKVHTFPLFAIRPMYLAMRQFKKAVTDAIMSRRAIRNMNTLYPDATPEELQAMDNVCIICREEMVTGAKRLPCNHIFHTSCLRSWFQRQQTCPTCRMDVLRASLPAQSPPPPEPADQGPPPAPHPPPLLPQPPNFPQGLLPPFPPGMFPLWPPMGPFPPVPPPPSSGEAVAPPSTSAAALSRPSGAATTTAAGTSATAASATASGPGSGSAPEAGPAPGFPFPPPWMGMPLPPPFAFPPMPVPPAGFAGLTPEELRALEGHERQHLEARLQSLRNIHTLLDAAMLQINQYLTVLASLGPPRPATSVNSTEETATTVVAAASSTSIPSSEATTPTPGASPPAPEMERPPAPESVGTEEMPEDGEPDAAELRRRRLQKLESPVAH

This experiment deals with T1, H2aG78R uncleavable mutant fused through its C-terminus to a 38-amino acid streptavidin binding peptide (human) (UniProt P07307).
T1 sequence: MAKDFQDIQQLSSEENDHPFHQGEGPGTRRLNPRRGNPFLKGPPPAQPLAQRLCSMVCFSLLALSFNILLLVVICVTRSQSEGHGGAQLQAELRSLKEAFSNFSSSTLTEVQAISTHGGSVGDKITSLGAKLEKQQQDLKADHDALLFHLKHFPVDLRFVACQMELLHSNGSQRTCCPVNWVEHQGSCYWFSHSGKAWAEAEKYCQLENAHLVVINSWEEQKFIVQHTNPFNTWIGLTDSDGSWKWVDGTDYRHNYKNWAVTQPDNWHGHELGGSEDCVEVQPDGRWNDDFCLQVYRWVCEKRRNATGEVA
As to the kind of experiment: pull-down; H2aSBP precipitated with streptavidin-agarose beads from lysates of SBP6 cells transfected with mutHRD1-myc, treated or not for 4 h with 20 μM MG132; elution with biotin; immunoblot with anti-H2a or anti-myc; control HEK293 cells without H2aSBP. In general terms: A western blot detects proteins with antibodies after separation by electrophoresis.

Results are given in words; binding and its absence hold for the method and conditions named. Binding seen in cells or lysates may run through a third protein. A result given as binding can be weak or reduced; the word gives no strength. Sequences can lack the tags named with a protein.

As to “dominant negative mutant hsHRD1-myc (from UniProt Q86TM6) (enzyme)”, the binding entry is recorded as “binds”.
